According to publication PMC3806365:
No constants are given. Whether binding was seen depends on the method and setting. In cells and extracts the contact can be indirect. Some entries that bind do so weakly or less than the wild type. For part of these data: Sequences can lack the tags named with a protein.

By UniProt entry, the sequences of proteins in these tests, tags left out.
UniProt P48722: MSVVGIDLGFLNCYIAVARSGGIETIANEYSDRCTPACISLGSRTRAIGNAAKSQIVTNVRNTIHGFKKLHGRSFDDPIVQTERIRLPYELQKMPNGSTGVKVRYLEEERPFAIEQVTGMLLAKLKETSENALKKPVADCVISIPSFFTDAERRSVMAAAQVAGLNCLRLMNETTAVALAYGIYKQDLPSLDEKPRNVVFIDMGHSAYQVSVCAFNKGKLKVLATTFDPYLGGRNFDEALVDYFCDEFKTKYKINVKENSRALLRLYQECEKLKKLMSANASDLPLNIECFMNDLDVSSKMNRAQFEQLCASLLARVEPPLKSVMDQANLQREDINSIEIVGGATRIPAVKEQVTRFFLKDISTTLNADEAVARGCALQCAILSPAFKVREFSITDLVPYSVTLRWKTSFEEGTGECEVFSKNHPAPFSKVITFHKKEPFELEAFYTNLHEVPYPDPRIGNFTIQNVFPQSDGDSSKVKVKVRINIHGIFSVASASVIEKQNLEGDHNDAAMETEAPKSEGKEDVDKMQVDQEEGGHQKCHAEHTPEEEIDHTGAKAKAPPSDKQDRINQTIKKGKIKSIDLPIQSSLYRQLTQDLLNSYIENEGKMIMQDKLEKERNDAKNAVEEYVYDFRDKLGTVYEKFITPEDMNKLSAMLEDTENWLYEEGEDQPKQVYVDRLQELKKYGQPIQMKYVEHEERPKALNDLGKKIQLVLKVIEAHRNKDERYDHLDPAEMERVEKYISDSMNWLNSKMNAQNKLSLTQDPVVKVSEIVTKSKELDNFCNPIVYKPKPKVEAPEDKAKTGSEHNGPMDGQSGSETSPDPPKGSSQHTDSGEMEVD

Tests used:
[1] = biological target: T1, Nogo-A/RTN4-A (endogenous, mouse) (mouse (endogenous in brain and hippocampal neurons)) (UniProt Q99P72); test: proximity ligation; endogenous Nogo-A and Apg-1 in mouse hippocampal neurons cultured for 20 days, Nogo+/+ against Nogo-/- neurons; also under hypoxic conditions (results not shown): no change in signals
T1 sequence: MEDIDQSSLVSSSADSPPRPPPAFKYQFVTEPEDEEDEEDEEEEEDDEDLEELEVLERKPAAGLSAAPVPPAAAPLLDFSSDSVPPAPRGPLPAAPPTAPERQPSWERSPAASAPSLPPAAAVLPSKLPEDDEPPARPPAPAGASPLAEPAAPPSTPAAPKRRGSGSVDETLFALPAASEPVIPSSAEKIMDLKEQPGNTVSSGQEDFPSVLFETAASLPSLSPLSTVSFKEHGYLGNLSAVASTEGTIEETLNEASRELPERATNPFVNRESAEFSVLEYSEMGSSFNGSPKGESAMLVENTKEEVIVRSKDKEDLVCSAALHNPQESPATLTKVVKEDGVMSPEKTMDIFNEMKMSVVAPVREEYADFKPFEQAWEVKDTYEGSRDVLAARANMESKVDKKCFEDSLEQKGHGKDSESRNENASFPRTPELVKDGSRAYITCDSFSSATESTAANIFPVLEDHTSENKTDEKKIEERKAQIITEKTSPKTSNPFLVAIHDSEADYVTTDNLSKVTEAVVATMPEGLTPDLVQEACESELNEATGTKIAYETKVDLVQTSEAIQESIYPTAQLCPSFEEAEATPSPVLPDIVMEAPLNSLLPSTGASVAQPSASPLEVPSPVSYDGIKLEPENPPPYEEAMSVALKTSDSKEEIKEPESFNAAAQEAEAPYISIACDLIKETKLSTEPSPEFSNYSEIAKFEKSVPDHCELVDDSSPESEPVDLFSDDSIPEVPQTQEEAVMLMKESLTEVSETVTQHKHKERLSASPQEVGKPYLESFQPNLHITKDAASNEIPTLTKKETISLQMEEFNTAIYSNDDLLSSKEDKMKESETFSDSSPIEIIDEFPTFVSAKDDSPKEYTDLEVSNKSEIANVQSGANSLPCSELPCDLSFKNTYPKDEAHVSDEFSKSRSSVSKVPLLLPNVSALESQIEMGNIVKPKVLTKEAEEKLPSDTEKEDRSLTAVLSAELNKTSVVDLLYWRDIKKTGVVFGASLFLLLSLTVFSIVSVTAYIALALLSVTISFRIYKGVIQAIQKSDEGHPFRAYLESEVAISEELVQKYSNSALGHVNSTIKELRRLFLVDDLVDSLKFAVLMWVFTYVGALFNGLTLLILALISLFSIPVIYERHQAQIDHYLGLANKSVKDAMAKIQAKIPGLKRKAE

[2] = biological target: T1, Nogo-A/RTN4-A (endogenous, mouse) (mouse (endogenous in brain and hippocampal neurons)); test: co-IP; endogenous proteins, brain lysate from a 4-week-old mouse, 1 mg of total protein; 6 μg of rabbit anti-Nogo-A/B (Bianca), rabbit anti-Apg-1 or rabbit IgG; Western blot
[3] = biological target: T2, Nogo-A–EGFP (full-length rat Nogo-A in pEGFP-N3) (rat) (UniProt Q9JK11); test: proximity ligation; adherent CHO-K1 cells transfected with Nogo-A–EGFP or Nogo-B–EGFP and EBFP2–Apg-1, fixed after 2 days; rabbit Bianca antiserum and mouse anti-Apg-1, Duolink probes
T2 sequence: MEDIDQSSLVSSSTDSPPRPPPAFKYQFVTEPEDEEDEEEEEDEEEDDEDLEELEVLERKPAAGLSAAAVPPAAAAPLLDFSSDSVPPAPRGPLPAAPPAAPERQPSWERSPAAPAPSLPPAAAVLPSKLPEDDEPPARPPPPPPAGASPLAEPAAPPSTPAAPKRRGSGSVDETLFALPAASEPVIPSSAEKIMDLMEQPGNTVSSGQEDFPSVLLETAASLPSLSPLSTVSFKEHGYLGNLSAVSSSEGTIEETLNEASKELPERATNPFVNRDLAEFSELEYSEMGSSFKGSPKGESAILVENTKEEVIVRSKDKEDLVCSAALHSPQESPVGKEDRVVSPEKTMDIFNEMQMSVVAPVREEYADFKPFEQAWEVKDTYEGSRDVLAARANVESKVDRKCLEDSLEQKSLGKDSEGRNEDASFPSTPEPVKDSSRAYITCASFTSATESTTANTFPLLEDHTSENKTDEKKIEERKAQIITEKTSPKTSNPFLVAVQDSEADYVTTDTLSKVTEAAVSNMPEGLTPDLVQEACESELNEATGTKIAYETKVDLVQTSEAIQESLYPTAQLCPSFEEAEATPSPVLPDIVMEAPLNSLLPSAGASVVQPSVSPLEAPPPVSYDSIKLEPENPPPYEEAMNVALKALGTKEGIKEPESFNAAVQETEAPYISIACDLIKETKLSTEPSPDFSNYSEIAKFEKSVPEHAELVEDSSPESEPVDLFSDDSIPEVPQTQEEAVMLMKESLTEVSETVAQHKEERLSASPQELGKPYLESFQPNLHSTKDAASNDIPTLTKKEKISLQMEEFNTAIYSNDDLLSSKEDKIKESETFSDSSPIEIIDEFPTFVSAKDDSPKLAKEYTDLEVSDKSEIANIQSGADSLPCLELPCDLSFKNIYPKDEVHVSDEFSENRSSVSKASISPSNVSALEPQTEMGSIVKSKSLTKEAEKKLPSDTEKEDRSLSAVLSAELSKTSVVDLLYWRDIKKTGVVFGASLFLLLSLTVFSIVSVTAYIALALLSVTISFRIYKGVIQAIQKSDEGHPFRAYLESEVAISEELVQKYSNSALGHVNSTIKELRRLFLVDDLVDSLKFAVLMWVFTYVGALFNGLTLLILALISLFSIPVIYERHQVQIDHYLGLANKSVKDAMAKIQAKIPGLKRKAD

binding [1]	binding [2]	binding [3]	Substance
binds	binds	–	Apg-1 (endogenous, mouse) (from UniProt P48722 1-838)
–	–	binds	EBFP2–Apg-1 fusion protein (mouse Apg-1 open reading frame) (from UniProt P48722 1-838)
